According to the supplement of paper PMC10849652:
The list shows a part of the results.

The chains behind the UniProt entries cited, without tags or fusion partners. Where a name states a change or a piece, a line headed by the entry shows the natural chain unless it says otherwise.
UniProt Q96E09: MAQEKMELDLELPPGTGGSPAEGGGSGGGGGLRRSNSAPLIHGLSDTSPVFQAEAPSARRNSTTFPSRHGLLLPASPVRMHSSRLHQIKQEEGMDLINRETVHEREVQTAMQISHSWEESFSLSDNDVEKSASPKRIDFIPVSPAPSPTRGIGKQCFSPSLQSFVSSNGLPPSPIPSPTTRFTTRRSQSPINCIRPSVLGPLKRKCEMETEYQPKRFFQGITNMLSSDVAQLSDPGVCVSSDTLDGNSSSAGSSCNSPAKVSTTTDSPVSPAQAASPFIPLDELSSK
UniProt Q969X5: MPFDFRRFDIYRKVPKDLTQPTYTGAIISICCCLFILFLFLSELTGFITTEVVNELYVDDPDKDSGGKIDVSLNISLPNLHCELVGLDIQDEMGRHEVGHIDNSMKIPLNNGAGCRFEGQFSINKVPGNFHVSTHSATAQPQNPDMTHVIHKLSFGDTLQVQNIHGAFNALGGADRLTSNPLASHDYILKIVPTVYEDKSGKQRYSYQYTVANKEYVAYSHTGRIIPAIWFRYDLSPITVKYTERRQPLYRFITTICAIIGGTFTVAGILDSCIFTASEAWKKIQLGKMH
UniProt Q01780: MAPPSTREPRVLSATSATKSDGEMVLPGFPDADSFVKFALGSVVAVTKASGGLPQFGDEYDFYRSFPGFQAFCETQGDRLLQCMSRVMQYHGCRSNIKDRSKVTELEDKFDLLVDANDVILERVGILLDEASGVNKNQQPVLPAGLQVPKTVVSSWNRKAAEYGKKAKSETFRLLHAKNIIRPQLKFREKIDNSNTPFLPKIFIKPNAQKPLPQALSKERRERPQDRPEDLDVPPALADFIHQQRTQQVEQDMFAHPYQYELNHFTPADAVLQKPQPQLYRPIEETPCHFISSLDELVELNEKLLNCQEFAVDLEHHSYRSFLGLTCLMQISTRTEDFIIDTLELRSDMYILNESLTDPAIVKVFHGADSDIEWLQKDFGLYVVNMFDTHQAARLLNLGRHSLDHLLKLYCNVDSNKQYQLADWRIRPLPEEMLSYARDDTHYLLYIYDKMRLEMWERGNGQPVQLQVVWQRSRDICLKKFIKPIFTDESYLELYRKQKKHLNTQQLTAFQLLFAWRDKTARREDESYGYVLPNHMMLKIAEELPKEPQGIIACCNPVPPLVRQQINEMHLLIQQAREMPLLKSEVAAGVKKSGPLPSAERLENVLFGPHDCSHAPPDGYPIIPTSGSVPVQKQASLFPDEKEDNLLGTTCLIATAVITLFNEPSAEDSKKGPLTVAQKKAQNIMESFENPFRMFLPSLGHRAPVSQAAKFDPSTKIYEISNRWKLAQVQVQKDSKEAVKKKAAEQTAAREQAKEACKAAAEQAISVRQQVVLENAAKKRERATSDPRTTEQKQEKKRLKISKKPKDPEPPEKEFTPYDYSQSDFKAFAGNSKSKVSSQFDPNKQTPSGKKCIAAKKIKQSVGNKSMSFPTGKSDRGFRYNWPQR
UniProt Q9HCE0: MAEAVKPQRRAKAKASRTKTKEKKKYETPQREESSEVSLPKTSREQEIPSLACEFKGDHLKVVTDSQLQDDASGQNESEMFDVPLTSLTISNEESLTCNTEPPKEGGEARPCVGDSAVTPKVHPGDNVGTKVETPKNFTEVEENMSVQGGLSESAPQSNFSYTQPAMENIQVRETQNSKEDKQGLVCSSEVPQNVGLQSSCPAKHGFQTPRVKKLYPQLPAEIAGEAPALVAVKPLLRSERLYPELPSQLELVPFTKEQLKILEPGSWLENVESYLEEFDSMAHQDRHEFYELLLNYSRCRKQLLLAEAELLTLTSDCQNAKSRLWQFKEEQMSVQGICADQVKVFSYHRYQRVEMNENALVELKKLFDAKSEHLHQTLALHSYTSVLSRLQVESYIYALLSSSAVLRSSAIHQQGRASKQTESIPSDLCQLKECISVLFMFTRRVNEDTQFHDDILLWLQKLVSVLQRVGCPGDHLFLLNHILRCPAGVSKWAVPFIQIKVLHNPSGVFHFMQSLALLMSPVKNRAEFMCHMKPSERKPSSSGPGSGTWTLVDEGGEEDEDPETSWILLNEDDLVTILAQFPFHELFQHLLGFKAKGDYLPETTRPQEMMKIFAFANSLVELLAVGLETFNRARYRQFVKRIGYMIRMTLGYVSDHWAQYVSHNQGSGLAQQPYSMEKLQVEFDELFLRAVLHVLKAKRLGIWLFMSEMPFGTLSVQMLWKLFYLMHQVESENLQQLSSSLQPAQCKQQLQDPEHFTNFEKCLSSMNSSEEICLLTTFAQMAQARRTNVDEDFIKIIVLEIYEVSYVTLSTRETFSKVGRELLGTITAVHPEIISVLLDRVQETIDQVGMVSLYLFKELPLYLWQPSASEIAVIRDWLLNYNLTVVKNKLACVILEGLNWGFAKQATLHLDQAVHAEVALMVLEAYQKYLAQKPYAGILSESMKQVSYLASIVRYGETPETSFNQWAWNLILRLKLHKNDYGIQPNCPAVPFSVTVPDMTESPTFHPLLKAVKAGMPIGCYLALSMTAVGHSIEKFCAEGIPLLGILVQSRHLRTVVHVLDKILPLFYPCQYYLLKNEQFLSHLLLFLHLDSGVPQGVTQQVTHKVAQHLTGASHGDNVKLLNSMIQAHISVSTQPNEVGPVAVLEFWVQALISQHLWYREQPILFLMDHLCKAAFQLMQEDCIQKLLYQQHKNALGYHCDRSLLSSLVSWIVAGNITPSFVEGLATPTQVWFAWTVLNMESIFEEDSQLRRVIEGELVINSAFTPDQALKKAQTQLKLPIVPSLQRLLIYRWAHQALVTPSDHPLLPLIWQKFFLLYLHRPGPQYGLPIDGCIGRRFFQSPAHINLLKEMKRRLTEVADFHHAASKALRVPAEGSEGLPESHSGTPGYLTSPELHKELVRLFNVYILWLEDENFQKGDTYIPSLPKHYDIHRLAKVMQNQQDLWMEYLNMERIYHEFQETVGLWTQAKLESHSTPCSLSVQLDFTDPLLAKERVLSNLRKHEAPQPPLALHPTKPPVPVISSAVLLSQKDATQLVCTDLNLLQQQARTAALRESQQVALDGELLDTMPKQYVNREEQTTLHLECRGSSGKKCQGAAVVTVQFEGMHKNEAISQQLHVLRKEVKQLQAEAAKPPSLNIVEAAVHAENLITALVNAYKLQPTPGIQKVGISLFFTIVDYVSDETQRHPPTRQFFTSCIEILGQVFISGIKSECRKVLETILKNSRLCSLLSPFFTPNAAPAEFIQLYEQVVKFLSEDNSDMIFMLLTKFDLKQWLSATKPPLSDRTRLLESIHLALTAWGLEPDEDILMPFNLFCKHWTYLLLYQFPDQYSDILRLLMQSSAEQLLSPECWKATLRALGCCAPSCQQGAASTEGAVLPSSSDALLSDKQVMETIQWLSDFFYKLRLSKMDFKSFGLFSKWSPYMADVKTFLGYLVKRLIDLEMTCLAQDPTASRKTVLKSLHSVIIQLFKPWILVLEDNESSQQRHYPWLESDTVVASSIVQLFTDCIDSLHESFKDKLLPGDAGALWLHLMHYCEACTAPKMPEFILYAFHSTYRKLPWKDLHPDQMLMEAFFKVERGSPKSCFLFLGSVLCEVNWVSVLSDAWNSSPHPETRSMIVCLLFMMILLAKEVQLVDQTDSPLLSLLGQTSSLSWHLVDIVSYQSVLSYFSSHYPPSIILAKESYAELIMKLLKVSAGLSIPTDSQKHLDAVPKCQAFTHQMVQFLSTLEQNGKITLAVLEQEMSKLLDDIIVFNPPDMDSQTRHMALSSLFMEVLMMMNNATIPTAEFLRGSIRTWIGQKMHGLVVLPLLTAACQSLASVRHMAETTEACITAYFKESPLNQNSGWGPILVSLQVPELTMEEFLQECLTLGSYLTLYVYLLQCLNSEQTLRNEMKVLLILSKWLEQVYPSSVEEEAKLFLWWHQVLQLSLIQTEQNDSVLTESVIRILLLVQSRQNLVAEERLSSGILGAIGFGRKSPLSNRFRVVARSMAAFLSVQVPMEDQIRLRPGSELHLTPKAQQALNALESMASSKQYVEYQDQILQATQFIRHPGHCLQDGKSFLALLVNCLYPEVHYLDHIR
UniProt Q86X53: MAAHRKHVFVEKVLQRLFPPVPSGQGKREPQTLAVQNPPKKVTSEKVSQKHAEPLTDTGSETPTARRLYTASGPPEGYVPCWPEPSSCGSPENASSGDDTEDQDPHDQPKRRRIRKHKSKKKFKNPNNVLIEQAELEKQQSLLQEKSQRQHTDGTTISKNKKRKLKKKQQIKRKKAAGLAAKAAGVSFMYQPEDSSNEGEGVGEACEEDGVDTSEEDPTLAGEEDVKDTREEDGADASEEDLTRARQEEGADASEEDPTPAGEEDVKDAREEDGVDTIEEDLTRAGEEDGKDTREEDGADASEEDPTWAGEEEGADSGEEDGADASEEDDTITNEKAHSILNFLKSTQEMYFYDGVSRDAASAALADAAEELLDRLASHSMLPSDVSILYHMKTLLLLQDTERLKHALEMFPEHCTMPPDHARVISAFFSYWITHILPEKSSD
UniProt P07992: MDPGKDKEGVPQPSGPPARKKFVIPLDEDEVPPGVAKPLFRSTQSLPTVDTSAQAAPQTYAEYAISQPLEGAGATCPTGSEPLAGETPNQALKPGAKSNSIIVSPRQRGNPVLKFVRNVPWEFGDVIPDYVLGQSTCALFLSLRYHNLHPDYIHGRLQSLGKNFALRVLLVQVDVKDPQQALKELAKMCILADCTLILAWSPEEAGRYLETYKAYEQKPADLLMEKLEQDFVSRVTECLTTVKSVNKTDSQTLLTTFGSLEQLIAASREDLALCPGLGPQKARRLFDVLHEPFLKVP
UniProt Q01469, whole entry, looked up: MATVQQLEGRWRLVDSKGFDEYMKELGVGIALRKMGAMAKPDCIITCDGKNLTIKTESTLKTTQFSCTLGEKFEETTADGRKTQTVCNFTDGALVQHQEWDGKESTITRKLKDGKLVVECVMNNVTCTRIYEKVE
UniProt Q8WUF8: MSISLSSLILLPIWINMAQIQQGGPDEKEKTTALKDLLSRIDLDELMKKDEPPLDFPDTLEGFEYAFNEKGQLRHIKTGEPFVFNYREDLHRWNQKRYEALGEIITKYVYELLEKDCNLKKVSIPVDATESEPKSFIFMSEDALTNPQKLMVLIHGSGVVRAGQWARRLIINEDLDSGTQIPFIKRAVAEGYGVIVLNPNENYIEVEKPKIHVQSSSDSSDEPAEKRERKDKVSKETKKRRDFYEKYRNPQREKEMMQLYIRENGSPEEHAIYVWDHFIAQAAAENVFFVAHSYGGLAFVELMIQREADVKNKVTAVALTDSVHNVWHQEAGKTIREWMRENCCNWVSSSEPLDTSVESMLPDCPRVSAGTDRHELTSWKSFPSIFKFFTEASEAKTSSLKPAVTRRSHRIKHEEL
UniProt Q7Z309: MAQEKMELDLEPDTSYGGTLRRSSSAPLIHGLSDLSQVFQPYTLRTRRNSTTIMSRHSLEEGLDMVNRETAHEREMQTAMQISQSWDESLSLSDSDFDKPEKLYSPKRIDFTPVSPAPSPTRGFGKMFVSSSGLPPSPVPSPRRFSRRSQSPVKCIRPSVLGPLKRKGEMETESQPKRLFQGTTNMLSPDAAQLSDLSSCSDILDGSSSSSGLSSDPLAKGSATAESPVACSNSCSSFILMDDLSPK
UniProt O43491, whole entry, looked up: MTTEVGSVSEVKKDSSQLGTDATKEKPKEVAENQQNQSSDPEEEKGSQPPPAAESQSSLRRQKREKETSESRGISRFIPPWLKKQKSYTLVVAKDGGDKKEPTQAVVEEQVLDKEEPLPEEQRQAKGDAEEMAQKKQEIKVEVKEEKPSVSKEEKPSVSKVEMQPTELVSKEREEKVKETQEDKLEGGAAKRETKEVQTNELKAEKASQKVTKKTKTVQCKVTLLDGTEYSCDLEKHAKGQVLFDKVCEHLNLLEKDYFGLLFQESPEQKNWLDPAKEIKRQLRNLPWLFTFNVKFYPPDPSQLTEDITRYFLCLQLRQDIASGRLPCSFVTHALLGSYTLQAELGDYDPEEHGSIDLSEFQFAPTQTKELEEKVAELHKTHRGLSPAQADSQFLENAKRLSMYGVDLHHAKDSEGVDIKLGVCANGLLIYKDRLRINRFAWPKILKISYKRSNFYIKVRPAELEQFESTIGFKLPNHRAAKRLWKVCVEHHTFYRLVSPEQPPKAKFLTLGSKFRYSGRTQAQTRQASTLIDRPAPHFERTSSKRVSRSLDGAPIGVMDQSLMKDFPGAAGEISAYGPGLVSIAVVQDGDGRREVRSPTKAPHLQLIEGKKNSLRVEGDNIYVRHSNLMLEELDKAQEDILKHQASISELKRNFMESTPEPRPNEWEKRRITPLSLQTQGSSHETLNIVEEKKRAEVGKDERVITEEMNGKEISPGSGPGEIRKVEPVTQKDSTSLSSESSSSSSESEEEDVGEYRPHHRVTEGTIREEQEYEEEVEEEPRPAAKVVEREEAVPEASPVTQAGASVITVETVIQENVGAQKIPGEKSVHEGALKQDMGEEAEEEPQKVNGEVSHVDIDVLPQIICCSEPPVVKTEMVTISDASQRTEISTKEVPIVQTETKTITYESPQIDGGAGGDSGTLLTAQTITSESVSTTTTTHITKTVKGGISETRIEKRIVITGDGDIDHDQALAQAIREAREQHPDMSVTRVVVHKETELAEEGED

Assays:
Test in all cases: log2 fold change, soluble protein after heating vs DMSO (PISA); higher = thermal stabilisation; K562 cells, 10 uM, 30 min; active = over 0.2 and 3.5 SD of the protein, either way, in both replicates (recomputed)
[1] = compound: COC1=CC=C(C=C1)CN2C=CC3=C2C=C(C=C3)C(=O)NO
Summary of the method: (§1)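 Quantification of soluble protein used TMTpro 16plex LC-MS/MS, with channel sums equalised. Samples were the supernatant after 21,000xg for 90 min of pooled aliquots from K562 cells (2×10^6 cells/mL) treated with 10 μM compound for 30 min, heated for 3 min over 48°C-58°C, and extracted in PBS with 0.5% NP-40 at 4°C. Values, from duplicates, describe thermal stability against control samples on a log2 fold-change scale.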

[2] = compound: CON(C)C(=O)N1N=C(c2cc(F)ccc2F)S[C@@]1(CCCN)c1ccccc1 [filanesib]
Summary of the method: as §1

[3] = compound: CO[C@H]1C[C@@H]2CC[C@@H](C)[C@@](O)(O2)C(=O)C(=O)N2CCCC[C@H]2C(=O)O[C@H]([C@H](C)C[C@@H]2CC[C@H](n3cnnn3)[C@H](OC)C2)CC(=O)[C@H](C)/C=C(\C)[C@@H](O)[C@@H](OC)C(=O)[C@H](C)C[C@H](C)/C=C/C=C/C=C/1C [zotarolimus]
Summary of the method: as §1

[4] = compound: COc1cc(C(=O)O)ccc1NC(=O)[C@@H]1N[C@@H](CC(C)(C)C)[C@](C#N)(c2ccc(Cl)cc2F)[C@H]1c1cccc(Cl)c1F [idasanutlin]
Summary of the method: as §1

[5] = compound: COc1cc(Nc2ncc3c(n2)-c2ccc(Cl)cc2C(c2c(F)cccc2OC)=NC3)ccc1C(=O)O [alisertib]
Summary of the method: as §1

[6] = compound: COc1cc2nc(-c3cc(F)ccc3O)nc(N[C@@H]3CNC[C@H]3C(C)(C)O)c2cc1OC
Summary of the method: as §1

[7] = compound: COc1cc2ncnc(Nc3ccc(F)c(Cl)c3)c2cc1OCCCN1CCOCC1 [gefitinib]
Summary of the method: as §1

[8] = compound: COc1cccc2cc(-c3nc([C@H]4CC[C@H](C(=O)O)CC4)n4ncnc(N)c34)[nH]c12
Summary of the method: as §1

[9] = compound: CS(=O)(=O)CCNCc1ccc(-c2ccc3ncnc(Nc4ccc(OCc5cccc(F)c5)c(Cl)c4)c3c2)o1 [lapatinib]
Summary of the method: as §1

[10] = compound: CS(=O)(=O)N1CCN(Cc2cc3nc(-c4cccc5[nH]ncc45)nc(N4CCOCC4)c3s2)CC1 [pictilisib]
Summary of the method: as §1

Measured: log2 fold change

EWSR1 isoform 5 (UniProt Q01844)
inactive: [1] 0.014 | [2] 0.035 | [3] -0.029 | [4] 0.076 | [5] -0.028 | [6] -0.062 | [7] -0.024 | [8] 0.018 | [9] 0.014 | [10] 0.034

ERGIC2 (UniProt Q96RQ1)
inactive: [1] 0.092 | [2] -0.144 | [3] 0.001 | [4] -0.071 | [5] -0.011 | [6] -0.102 | [7] -0.01 | [8] 0.037 | [9] 0.01 | [10] -0.077

ERC1 (UniProt Q8IUD2)
inactive: [1] -0.044 | [2] 0.03 | [3] 0.017 | [4] 0.038 | [5] -0.107 | [6] -0.06 | [7] 0.039 | [8] -0.014 | [9] -0.013 | [10] 0.147

FAM122A (UniProt Q96E09)
inactive: [1] -0.05 | [2] -0.004 | [3] -0.038 | [4] 0.017 | [5] -0.068 | [6] -0.053 | [7] 0.019 | [8] 0.005 | [9] 0.018 | [10] 0.092

ESS2 (UniProt Q96DF8)
inactive: [1] -0.022 | [2] 0.046 | [3] -0.019 | [4] 0.052 | [5] -0.125 | [6] -0.037 | [7] -0.088 | [8] 0.005 | [9] 0.073 | [10] -0.083

EXOC2 (UniProt Q96KP1)
inactive: [1] 0.015 | [2] -0.009 | [3] 0.021 | [4] -0.02 | [5] -0.011 | [6] 0.096 | [7] 0.107 | [8] -0.106 | [9] -0.037 | [10] 0.059

EPHX1 (UniProt P07099)
inactive: [1] 0.002 | [2] -0.03 | [3] -0.051 | [4] -0.023 | [5] -0.03 | [6] -0.025 | [7] 0.046 | [8] 0.049 | [9] 0.011 | [10] -0.037

F2 (UniProt P00734)
inactive: [1] 0.047 | [2] 0.243 | [3] -0.128 | [4] 0.04 | [5] -0.026 | [6] -0.146 | [7] -0.175 | [8] 0.27 | [9] 0 | [10] -0.021

ERGIC1 (UniProt Q969X5)
inactive: [1] 0.013 | [2] -0.008 | [3] -0.032 | [4] -0.016 | [5] -0.035 | [6] -0.008 | [7] 0.015 | [8] 0.048 | [9] 0.034 | [10] 0.118

FAM162A (UniProt Q96A26)
inactive: [1] -0.077 | [2] -0.04 | [3] -0.03 | [4] -0.04 | [5] -0.138 | [6] -0.031 | [7] -0.009 | [8] 0.071 | [9] -0.02 | [10] -0.063

EXOSC10 (UniProt Q01780)
inactive: [1] 0.593 | [2] 0.136 | [3] 0.115 | [4] 0.01 | [5] -0.002 | [6] 0.387 | [8] 0.1 | [9] -0.221 | [10] 0.227

ERI1 (UniProt Q8IV48)
inactive: [1] -0.084 | [3] 0.071 | [5] -0.114 | [8] -0.275 | [10] -0.06

EPPK1 (UniProt P58107)
inactive: [1] 0.017 | [2] 0.413 | [3] 0.135 | [5] 1.32 | [6] -0.044 | [7] -0.093 | [8] -0.167 | [9] 0 | [10] 0

FAHD2B (UniProt Q6P2I3)
inactive: [1] 0.102 | [3] 0.092 | [4] 0.261 | [5] -0.033 | [6] -0.122 | [7] -0.093 | [8] 0.186 | [9] 0.061

FAM117B (UniProt Q6P1L5)
inactive: [1] 0.053 | [3] 0.007 | [4] -0.062 | [10] 0.208

FAM114A1 (UniProt Q8IWE2)
inactive: [1] 0.002 | [5] 1.38 | [8] 0.03 | [10] 0.009

EPG5 (UniProt Q9HCE0)
inactive: [2] -0.272

FAM160A2 isoform 2 (UniProt Q8N612)
inactive: [1] -0.082 | [3] 0.067 | [5] 0.031 | [7] 0.158 | [8] 0.103 | [10] -0.056

ERICH1 (UniProt Q86X53)
inactive: [1] -0.021 | [6] 0.017 | [9] -0.009

EXO5 (UniProt Q9H790)
inactive: [2] -0.03

EXD2 (UniProt Q9NVH0)
inactive: [1] 0.014 | [2] -0.054 | [3] -0.173 | [6] 0.263 | [9] 0.088

ERCC6L (UniProt Q2NKX8)
inactive: [1] 0.035 | [2] 0.032 | [3] 0.038 | [4] 0.094 | [6] -0.17 | [7] 0.063 | [9] 0.095 | [10] 0.057

ERCC1 isoform 3 (UniProt P07992)
inactive: [2] 0.187 | [3] 0.147 | [6] 0.268 | [9] 0.219

FAM171A1 (UniProt Q5VUB5)
inactive: [1] -0.127 | [4] -0.054 | [6] 0.066 | [9] -0.078 | [10] -0.009

FABP5 (UniProt Q01469)
inactive: [1] 0.013 | [2] -0.044 | [3] 0.035 | [4] 0.013 | [5] 0.85 | [6] -0.076 | [7] 0.027 | [8] 0.03 | [9] 0.064 | [10] -0.069

Looked up one by one from the list above (3):
FABP5 (UniProt Q01469)
inactive: [1] 0.013 | [2] -0.044 | [3] 0.035 | [4] 0.013 | [5] 0.85 | [6] -0.076 | [7] 0.027 | [8] 0.03 | [9] 0.064 | [10] -0.069

ERCC1 isoform 3 (UniProt P07992)
inactive: [2] 0.187 | [3] 0.147 | [6] 0.268 | [9] 0.219

EXD2 (UniProt Q9NVH0)
inactive: [1] 0.014 | [2] -0.054 | [3] -0.173 | [6] 0.263 | [9] 0.088

Next results

ERI3 (UniProt H0Y4B0)
inactive: [2] 0.012

FAM204A (UniProt Q9H8W3)
inactive: [2] 0.199 | [3] -0.24 | [5] 0.951 | [8] -0.075 | [10] 0.009

FAM172A (UniProt Q8WUF8)
inactive: [2] -0.103 | [3] -0.102 | [5] -0.135 | [7] -0.043 | [8] 0.215 | [10] -0.024

FAM185A (UniProt Q8N0U4)
inactive: [1] 0.053 | [4] 0.027 | [5] -0.065 | [6] 0.174 | [7] 0.035 | [8] -0.002 | [9] -0.118

FAM122B isoform 3 (UniProt Q7Z309)
inactive: [1] -0.173 | [2] 0.057 | [3] 0.011 | [4] 0.335 | [5] -0.102 | [7] -0.009 | [8] 0.002 | [10] -0.102

EPB41L2 isoform 4 (UniProt O43491)
inactive: [1] 0.484 | [2] -0.199 | [5] 0.139 | [6] 0.186 | [7] -0.059 | [8] 0 | [9] -0.181
